# Measurements as given in US20160159888A1.
# Results are given in words; binding and its absence hold for the method and conditions named. Binding can be weak; no strength is given.
# Key:
# [1] = molecular target: recombinant S100A4 protein (species not stated for the experiment); assay: immunoprecipitation with Protein G Sepharose, Western blot (FIG. 4B)
# [2] = molecular target: recombinant S100A4 protein (species not stated for the experiment); assay: competitive immunoprecipitation
binder,measurement,setting,value
"anti-S100A4 mouse monoclonal antibody, clone 6B12 (antibody, V domains shown) VH: DVQLQESGPGLVKPSQSLSLTCSVTGDSFTNDYYWNWIRQFPGSKLEWMGHIGYGGNINYNPSLKNRISITRDTSKNQFFLRLTSVTTEDTATYYCTRESFYDGYPFDYWGQGTLVTVSA VL: DIQMTQTTSSLSASLGDRVTISCRASQDIRNYLNWYQQRPGGTLKLLIYYTSRLHSGVPSRFSGSGSGTDYSLTISNLEQEDIATYFCQQGNSLPRTFGGGTKLEIK",binding,[1],binds
same,binding,[2],binds
